According to PubChem BioAssay (Tox21):
Values joined by “and” are separate entries in the source; they are usually repeats but may differ in a detail not shown here. Equal values may be shown once. This list was built around the results that the source calls inconclusive (neither active nor inactive); the mix of calls is not that of the screen. Where the call is inconclusive, the potency comes from a doubtful curve fit. Active and inactive are the calls of the source. The call rests on the fitted dose curve; in most records, active means well fitted activation curve with a large enough effect in the repeat runs; inconclusive means weak or mixed curves; inactive means flat fitted curve, though single readings scatter.

Test: A CellTox Green Cytotoxicity Assay to monitor cytotoxicity in HEK293 cells - 24 hour (AID 1224875); further: nearly all actives have a fitted effect of over 45% in size
Details: CellTox Green fluorescence; series mostly up to 76.8 µM
Method in brief: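 HEK293 cells premixed with CellTox Green dye were seeded at 600 cells/well and left 5 h at 37 C/5% CO2 before pin transfer of 23 nL compound in DMSO. Fluorescence from dye bound to dead-cell DNA was read during 40 h treatment.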
Potency means the concentration at half of the fitted maximal effect.

SMILES	Potency
O=C(O)COc1nc(Cl)c(Cl)cc1Cl	inconclusive: 28.2 µM [activator, partial curve, poor fit]
CC1CCC(C(C)C)C(OC(=O)c2ccccc2N)C1 (centres undefined)	inconclusive: 38.4 µM [activator, partial curve, poor fit]
C=CC(=O)OCC(COC(=O)C=C)(COC(=O)C=C)COC(=O)C=C	inconclusive: 54.9 µM [activator, single point]
O=P(Oc1ccccc1)(Oc1ccccc1)Oc1ccccc1	inactive
Oc1ccc(C2(c3ccc(O)cc3)CCCCC2)cc1	inconclusive: 52.1 µM [activator, single point]
COc1cc(-c2ccc(N)c(OC)c2)ccc1N	inactive
Oc1cc(Cl)ccc1Oc1ccc(Cl)cc1Cl	inconclusive: 26.8 µM [activator, single point]
NCCCNCCCN	inconclusive: 62.6 µM [activator, single point]
CN1CSC(=S)N(C)C1	inconclusive: 4.87 µM [activator, full curve, poor fit]
C[C@H]1CCCC(=O)CCC/C=C/c2cc(O)cc(O)c2C(=O)O1	inconclusive: 47.2 µM [activator, single point]
ClC(Cl)=C(c1ccc(Cl)cc1)c1ccc(Cl)cc1	inconclusive: 56.3 µM [activator, single point]
COP(=O)(OC)O/C(=C\Cl)c1cc(Cl)c(Cl)cc1Cl	inactive
N#Cc1sc2c(=O)c3ccccc3c(=O)c=2sc1C#N	active: 21.9 µM
COC[C@@H](NC(C)=O)C(=O)NCc1ccccc1	inactive
O=c1[nH]c2ccccc2n1C1CCN(CCCC(c2ccc(F)cc2)c2ccc(F)cc2)CC1	inconclusive: 54.9 µM [activator, single point]
O=P(O)(O)CN(CP(=O)(O)O)CP(=O)(O)O	inconclusive: 54.9 µM [activator, single point]
c1ccc2c(c1)Sc1ccccc1N2CC1CN2CCC1CC2 (centres undefined)	inconclusive: 26.8 µM [activator, single point]
Nc1ccc(Cl)cc1N	inconclusive: 50.9 µM [activator, single point] and active: 24.5 µM
CCCCCCCCc1ccc(O)cc1	active: 17.5 µM
CC(C)CC(C)Nc1ccc(Nc2ccccc2)cc1 (centres undefined)	inconclusive: 54 µM [activator, partial curve, poor fit]

2 compounds picked at random from those above, as already listed:
SMILES	Potency
Oc1ccc(C2(c3ccc(O)cc3)CCCCC2)cc1	inconclusive: 52.1 µM [activator, single point]
NCCCNCCCN	inconclusive: 62.6 µM [activator, single point]

Continued:

SMILES	Potency
CCCCCCCc1ccc(O)cc1	active: 43.6 µM
c1cc(OCC2CO2)ccc1Cc1ccc(OCC2CO2)cc1 (centres undefined)	inconclusive: 55.2 µM [activator, single point]
COc1cccc(C(=O)CCN[C@@H](C)[C@H](O)c2ccccc2)c1	inconclusive: 26.8 µM [activator, single point]
C[C@]12CC[C@H](O)CC1=CC[C@@H]1[C@@H]2CC[C@]2(C)C(=O)CC[C@@H]12	inactive
Oc1cccc2cccnc12	inconclusive: 6.16 µM [activator]
C=CCN1C[C@H](C)N([C@H](c2ccc(C(=O)N(CC)CC)cc2)c2cccc(OC)c2)C[C@H]1C	inconclusive: 37.9 µM [activator, single point]
C=CCC1=C(C)[C@@H](OC(=O)[C@@H]2[C@@H](C=C(C)C)C2(C)C)CC1=O	inconclusive: 54.9 µM [activator, single point]
CCC[CH2][Sn]([CH2]CCC)([CH2]CCC)[O]C(=O)c1ccccc1	active: 1.95 µM
Clc1ccc(C(Cl)(Cl)Cl)cn1	active: 34.7 µM
O=C1C(Cl)=C(Cl)C(=O)c2ccccc21	active: 3.9 µM and active: 6.92 µM
C(=NC1CCCCC1)=NC1CCCCC1	active: 22 µM and active: 34.7 µM
CC1(C)CN=C(NN=C(/C=C/c2ccc(C(F)(F)F)cc2)/C=C/c2ccc(C(F)(F)F)cc2)NC1	inconclusive: 54.9 µM [activator, single point]
O=[N+]([O-])c1cc([N+](=O)[O-])c2ccccc2c1	inconclusive: 12.3 µM [activator, single point]
CCOC(=O)CC(=O)CCl	inconclusive: 54.9 µM [activator, single point]
CC(=O)O[C@H]1CC[C@@]2(C)C(=CC[C@@H]3[C@@H]2CC[C@]2(C)C(=O)CC[C@@H]32)C1	inconclusive: 49 µM [activator, single point]
O=[N+]([O-])c1ccc(O)c([N+](=O)[O-])c1	inconclusive: 61.9 µM [activator, single point] and inconclusive: 21.9 µM [activator, single point]
C1=Cc2cccc3cccc1c23	inconclusive: 60.6 µM [activator, single point]
CCC[CH2][Sn]([Cl])([Cl])[CH2]CCC	active: 556 nM and active: 2.19 µM
C=CC(=O)OCCCCOC(=O)C=C	inconclusive: 54.9 µM [activator, single point]
